# The supplement of paper PMC8728848
# The list shows a part of the results.
# Assays:
# Test in all cases: glycan array binding signal (z-score within array); higher = stronger binding
# Settings in all cases: glycan notation: IUPAC condensed, linker removed
# [1] = target: Neu5Ac(a2-3)Gal(b1-4)GlcNAc(b1-2)Man(a1-3)[Neu5Ac(a2-6)Gal(b1-4)GlcNAc(b1-2)Man(a1-6)]Man(b1-4)GlcNAc(b1-4)GlcNAc
# Summary of the method: (§1)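 Glycan array binding is given as a within-array Z-score, which can be read as non-binding when negative. The arrays, 3228 of them, came from the Consortium for Functional Glycomics database and were retained only where the protein sequence was available. Z-scores were averaged across arrays of the same protein sequence at different concentrations or buffers and across linkers.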
# [2] = target: Neu5Ac(a2-3)Gal(b1-4)GlcNAc(b1-2)[Neu5Ac(a2-3)Gal(b1-4)GlcNAc(b1-4)]Man(a1-3)[GlcNAc(b1-4)][Neu5Ac(a2-3)Gal(b1-4)GlcNAc(b1-2)[Neu5Ac(a2-3)Gal(b1-4)GlcNAc(b1-6)]Man(a1-6)]Man(b1-4)GlcNAc(b1-4)GlcNAc
# Summary of the method: as §1
# [3] = target: Neu5Ac(a2-3)Gal(b1-4)GlcNAc(b1-2)[Neu5Ac(a2-3)Gal(b1-4)GlcNAc(b1-4)]Man(a1-3)[GlcNAc(b1-4)][Neu5Ac(a2-3)Gal(b1-4)GlcNAc(b1-4)Man(a1-6)]Man(b1-4)GlcNAc(b1-4)GlcNAc
# Summary of the method: as §1
# [4] = target: Neu5Ac(a2-3)Gal(b1-4)GlcNAc(b1-2)[Neu5Ac(a2-3)Gal(b1-4)GlcNAc(b1-6)]Man(a1-6)[Neu5Ac(a2-3)Gal(b1-4)GlcNAc(b1-2)Man(a1-3)][GlcNAc(b1-4)]Man(b1-4)GlcNAc(b1-4)GlcNAc
# Summary of the method: as §1
# [5] = target: Neu5Ac(a2-3)Gal(b1-4)GlcNAc(b1-3)Gal
# Summary of the method: as §1
# [6] = target: Neu5Ac(a2-3)Gal(b1-4)GlcNAc(b1-3)Gal(b1-3)GlcNAc
# Summary of the method: as §1
# [7] = target: Neu5Ac(a2-3)Gal(b1-4)GlcNAc(b1-3)Gal(b1-4)GlcNAc
# Summary of the method: as §1
# [8] = target: Neu5Ac(a2-3)Gal(b1-4)GlcNAc(b1-3)Gal(b1-4)GlcNAc(b1-2)Man(a1-3)[Neu5Ac(a2-3)Gal(b1-4)GlcNAc(b1-3)Gal(b1-4)GlcNAc(b1-2)Man(a1-6)]Man(b1-4)GlcNAc(b1-4)GlcNAc
# Summary of the method: as §1
# [9] = target: Neu5Ac(a2-3)Gal(b1-4)GlcNAc(b1-3)Gal(b1-4)GlcNAc(b1-3)Gal(b1-4)GlcNAc
# Summary of the method: as §1
# [10] = target: Neu5Ac(a2-3)Gal(b1-4)GlcNAc(b1-3)Gal(b1-4)GlcNAc(b1-3)Gal(b1-4)GlcNAc(b1-2)Man(a1-3)[Neu5Ac(a2-3)Gal(b1-4)GlcNAc(b1-3)Gal(b1-4)GlcNAc(b1-3)Gal(b1-4)GlcNAc(b1-2)Man(a1-6)]GalNAc
# Summary of the method: as §1
# [11] = target: Neu5Ac(a2-3)Gal(b1-4)GlcNAc(b1-3)Gal(b1-4)GlcNAc(b1-3)GalNAc
# Summary of the method: as §1
# [12] = target: Neu5Ac(a2-3)Gal(b1-4)GlcNAc(b1-3)Gal(b1-4)GlcNAc(b1-3)[Neu5Ac(a2-3)Gal(b1-4)GlcNAc(b1-3)Gal(b1-4)GlcNAc(b1-6)]GalNAc
# Summary of the method: as §1
# [13] = target: Neu5Ac(a2-3)Gal(b1-4)GlcNAc(b1-3)Gal(b1-4)GlcNAc(b1-6)[Gal(b1-3)]GalNAc
# Summary of the method: as §1
# [14] = target: Neu5Ac(a2-3)Gal(b1-4)GlcNAc(b1-3)Gal(b1-4)[Fuc(a1-3)]GlcNAc
# Summary of the method: as §1
# [15] = target: Neu5Ac(a2-3)Gal(b1-4)GlcNAc(b1-3)GalNAc
# Summary of the method: as §1
# [16] = target: Neu5Ac(a2-3)Gal(b1-4)GlcNAc(b1-3)[Neu5Ac(a2-3)Gal(b1-4)GlcNAc(b1-6)]GalNAc
# Summary of the method: as §1
# [17] = target: Neu5Ac(a2-3)Gal(b1-4)GlcNAc(b1-6)GalNAc
# Summary of the method: as §1
# [18] = target: Neu5Ac(a2-3)Gal(b1-4)GlcNAc(b1-6)[Gal(b1-3)]GalNAc
# Summary of the method: as §1
# [19] = target: Neu5Ac(a2-3)Gal(b1-4)GlcNAc(b1-6)[Neu5Ac(a2-3)Gal(b1-3)]GalNAc
# Summary of the method: as §1
# [20] = target: Neu5Ac(a2-3)Gal(b1-4)GlcNAc6S
# Summary of the method: as §1
# [21] = target: Neu5Ac(a2-3)Gal(b1-4)[Fuc(a1-3)]GlcNAc
# Summary of the method: as §1
# [22] = target: Neu5Ac(a2-3)Gal(b1-4)[Fuc(a1-3)]GlcNAc(b1-2)Man
# Summary of the method: as §1
# [23] = target: Neu5Ac(a2-3)Gal(b1-4)[Fuc(a1-3)]GlcNAc(b1-3)Gal
# Summary of the method: as §1
# [24] = target: Neu5Ac(a2-3)Gal(b1-4)[Fuc(a1-3)]GlcNAc(b1-3)Gal(b1-4)GlcNAc
# Summary of the method: as §1
# [25] = target: Neu5Ac(a2-3)Gal(b1-4)[Fuc(a1-3)]GlcNAc(b1-3)Gal(b1-4)[Fuc(a1-3)]GlcNAc(b1-3)Gal(b1-4)[Fuc(a1-3)]GlcNAc
# Summary of the method: as §1
# [26] = target: Neu5Ac(a2-3)Gal(b1-4)[Fuc(a1-3)]GlcNAc(b1-3)GalNAc
# Summary of the method: as §1
# [27] = target: Neu5Ac(a2-3)Gal(b1-4)[Fuc(a1-3)]GlcNAc(b1-6)[Gal(b1-3)]GalNAc
# Summary of the method: as §1
# [28] = target: Neu5Ac(a2-3)Gal(b1-4)[Fuc(a1-3)]GlcNAc(b1-6)[Neu5Ac(a2-3)Gal(b1-3)]GalNAc
# Summary of the method: as §1
# [29] = target: Neu5Ac(a2-3)Gal(b1-4)[Fuc(a1-3)]GlcNAc6S
# Summary of the method: as §1
# [30] = target: Neu5Ac(a2-3)Gal6S(b1-4)GlcNAc
# Summary of the method: as §1
# [31] = target: Neu5Ac(a2-3)Gal6S(b1-4)[Fuc(a1-3)]GlcNAc
# Summary of the method: as §1
# [32] = target: Neu5Ac(a2-3)GalNAc
# Summary of the method: as §1
# [33] = target: Neu5Ac(a2-3)GalNAc(b1-4)GlcNAc
# Summary of the method: as §1
# [34] = target: Neu5Ac(a2-3)[GalNAc(b1-4)]Gal(b1-4)Glc
# Summary of the method: as §1
# [35] = target: Neu5Ac(a2-3)[GalNAc(b1-4)]Gal(b1-4)GlcNAc
# Summary of the method: as §1
# [36] = target: Neu5Ac(a2-3)[GalNAc(b1-4)]Gal(b1-4)GlcNAc(b1-3)GalNAc
# Summary of the method: as §1
# [37] = target: Neu5Ac(a2-3)[Neu5Ac(a2-6)]GalNAc
# Summary of the method: as §1
# [38] = target: Neu5Ac(a2-6)Gal
# Summary of the method: as §1
# [39] = target: Neu5Ac(a2-6)Gal(b1-3)GlcNAc(b1-3)[Gal(b1-4)GlcNAc(b1-6)]Gal(b1-4)Glc
# Summary of the method: as §1
# [40] = target: Neu5Ac(a2-6)Gal(b1-4)Glc
# Summary of the method: as §1
# [41] = target: Neu5Ac(a2-6)Gal(b1-4)GlcNAc
# Summary of the method: as §1
# [42] = target: Neu5Ac(a2-6)Gal(b1-4)GlcNAc(b1-2)Man
# Summary of the method: as §1
# [43] = target: Neu5Ac(a2-6)Gal(b1-4)GlcNAc(b1-2)Man(a1-3)Man(b1-4)GlcNAc(b1-4)GlcNAc
# Summary of the method: as §1
# [44] = target: Neu5Ac(a2-6)Gal(b1-4)GlcNAc(b1-2)Man(a1-3)[Gal(b1-4)GlcNAc(b1-2)Man(a1-6)]Man(b1-4)GlcNAc(b1-4)GlcNAc
# Summary of the method: as §1
# [45] = target: Neu5Ac(a2-6)Gal(b1-4)GlcNAc(b1-2)Man(a1-3)[GlcNAc(b1-2)Man(a1-6)]Man(b1-4)GlcNAc(b1-4)GlcNAc
# Summary of the method: as §1
binder,measurement,setting,value
Epa11 (Candida glabrata) (protein) MGSSHHHHHHSSGLVPRGSHMASSNAPNYPVGCSPSVGTQLTPGLSLEVYAYPMDGNNGYCWNATYKDPEFPRSGYLKNKLLGKADGVVGPLNFLAKNKDCSPKVDTLPAGFNFPQPITVTNFTMVLFGYLAPKQSGKYTFKLLADDLLLLNLGATNAFDCCNREATKNNLGEFLAYNLWPNQDKNVTVYLEKGVYYPLRLFFNNRDGGSQLDFSYYFNDSPAPLTDFSGMFFSVPDGAECPARI,glycan array binding signal (z-score),[1],-0.573
same,glycan array binding signal (z-score),[2],0.584
same,glycan array binding signal (z-score),[3],-0.495
same,glycan array binding signal (z-score),[4],-1.24
same,glycan array binding signal (z-score),[5],-0.477
same,glycan array binding signal (z-score),[6],-0.745
same,glycan array binding signal (z-score),[7],0.335
same,glycan array binding signal (z-score),[8],0.416
same,glycan array binding signal (z-score),[9],-0.226
same,glycan array binding signal (z-score),[10],1.3
same,glycan array binding signal (z-score),[11],0.068
same,glycan array binding signal (z-score),[12],0.099
same,glycan array binding signal (z-score),[13],-0.079
same,glycan array binding signal (z-score),[14],-0.296
same,glycan array binding signal (z-score),[15],0.796
same,glycan array binding signal (z-score),[16],0.121
same,glycan array binding signal (z-score),[17],-0.259
same,glycan array binding signal (z-score),[18],-0.044
same,glycan array binding signal (z-score),[19],-0.742
same,glycan array binding signal (z-score),[20],-0.474
same,glycan array binding signal (z-score),[21],1.08
same,glycan array binding signal (z-score),[22],-0.418
same,glycan array binding signal (z-score),[23],0.704
same,glycan array binding signal (z-score),[24],0.211
same,glycan array binding signal (z-score),[25],-0.51
same,glycan array binding signal (z-score),[26],1.7
same,glycan array binding signal (z-score),[27],1.02
same,glycan array binding signal (z-score),[28],0.772
same,glycan array binding signal (z-score),[29],-0.345
same,glycan array binding signal (z-score),[30],-0.645
same,glycan array binding signal (z-score),[31],-0.242
same,glycan array binding signal (z-score),[32],-0.08
same,glycan array binding signal (z-score),[33],0.122
same,glycan array binding signal (z-score),[34],0.153
same,glycan array binding signal (z-score),[35],0.022
same,glycan array binding signal (z-score),[36],-0.16
same,glycan array binding signal (z-score),[37],-0.124
same,glycan array binding signal (z-score),[38],0.038
same,glycan array binding signal (z-score),[39],-0.326
same,glycan array binding signal (z-score),[40],-0.541
same,glycan array binding signal (z-score),[41],-0.853
same,glycan array binding signal (z-score),[42],0.902
same,glycan array binding signal (z-score),[43],0.243
same,glycan array binding signal (z-score),[44],-0.37
same,glycan array binding signal (z-score),[45],-0.21

# As a short view, some entries already given.
binder,measurement,setting,value
Epa11 (Candida glabrata) (protein) MGSSHHHHHHSSGLVPRGSHMASSNAPNYPVGCSPSVGTQLTPGLSLEVYAYPMDGNNGYCWNATYKDPEFPRSGYLKNKLLGKADGVVGPLNFLAKNKDCSPKVDTLPAGFNFPQPITVTNFTMVLFGYLAPKQSGKYTFKLLADDLLLLNLGATNAFDCCNREATKNNLGEFLAYNLWPNQDKNVTVYLEKGVYYPLRLFFNNRDGGSQLDFSYYFNDSPAPLTDFSGMFFSVPDGAECPARI,glycan array binding signal (z-score),[30],-0.645
same,glycan array binding signal (z-score),[31],-0.242
